Assay results: publication PMC4811495
These are yes or no findings as the source states them, for the method shown. In cells and extracts the contact can be indirect. Some entries that bind do so weakly or less than the wild type. One block for each substance: values may come before it.

Sequences of proteins named here, by UniProt entry; tags and fusion partners are left off.
UniProt P62136: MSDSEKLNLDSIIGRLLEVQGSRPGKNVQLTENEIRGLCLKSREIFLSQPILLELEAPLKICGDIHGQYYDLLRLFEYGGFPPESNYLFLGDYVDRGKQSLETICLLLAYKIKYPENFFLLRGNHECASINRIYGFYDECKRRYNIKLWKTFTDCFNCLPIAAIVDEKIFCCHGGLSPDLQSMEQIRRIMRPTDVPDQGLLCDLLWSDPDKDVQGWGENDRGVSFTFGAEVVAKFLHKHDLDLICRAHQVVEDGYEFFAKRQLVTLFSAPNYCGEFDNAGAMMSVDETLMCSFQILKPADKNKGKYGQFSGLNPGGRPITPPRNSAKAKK
UniProt P10275: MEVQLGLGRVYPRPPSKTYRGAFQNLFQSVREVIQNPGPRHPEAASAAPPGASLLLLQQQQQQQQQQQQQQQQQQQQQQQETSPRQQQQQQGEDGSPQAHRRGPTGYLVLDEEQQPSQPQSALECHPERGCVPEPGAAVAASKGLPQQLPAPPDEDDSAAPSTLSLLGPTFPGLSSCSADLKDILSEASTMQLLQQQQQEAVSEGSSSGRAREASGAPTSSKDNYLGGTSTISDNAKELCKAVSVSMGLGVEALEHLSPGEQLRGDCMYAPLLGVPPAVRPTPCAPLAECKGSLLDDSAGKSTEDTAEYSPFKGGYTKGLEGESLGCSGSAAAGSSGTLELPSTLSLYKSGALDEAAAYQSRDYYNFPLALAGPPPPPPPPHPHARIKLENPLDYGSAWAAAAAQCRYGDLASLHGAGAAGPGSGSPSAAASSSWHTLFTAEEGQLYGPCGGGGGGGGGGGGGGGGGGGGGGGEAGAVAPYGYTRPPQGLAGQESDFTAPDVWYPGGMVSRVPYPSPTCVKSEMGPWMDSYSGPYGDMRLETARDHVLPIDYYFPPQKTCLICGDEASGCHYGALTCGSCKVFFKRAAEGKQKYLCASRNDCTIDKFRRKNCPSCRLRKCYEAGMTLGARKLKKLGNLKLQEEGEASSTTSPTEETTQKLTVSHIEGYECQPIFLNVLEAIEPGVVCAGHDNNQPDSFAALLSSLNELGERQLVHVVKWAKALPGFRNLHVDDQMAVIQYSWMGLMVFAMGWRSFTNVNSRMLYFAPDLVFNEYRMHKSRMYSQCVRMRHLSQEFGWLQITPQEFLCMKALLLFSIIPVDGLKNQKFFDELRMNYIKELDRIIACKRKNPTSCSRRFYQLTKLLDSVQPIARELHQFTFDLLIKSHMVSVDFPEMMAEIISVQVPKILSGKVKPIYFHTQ
UniProt Q00987: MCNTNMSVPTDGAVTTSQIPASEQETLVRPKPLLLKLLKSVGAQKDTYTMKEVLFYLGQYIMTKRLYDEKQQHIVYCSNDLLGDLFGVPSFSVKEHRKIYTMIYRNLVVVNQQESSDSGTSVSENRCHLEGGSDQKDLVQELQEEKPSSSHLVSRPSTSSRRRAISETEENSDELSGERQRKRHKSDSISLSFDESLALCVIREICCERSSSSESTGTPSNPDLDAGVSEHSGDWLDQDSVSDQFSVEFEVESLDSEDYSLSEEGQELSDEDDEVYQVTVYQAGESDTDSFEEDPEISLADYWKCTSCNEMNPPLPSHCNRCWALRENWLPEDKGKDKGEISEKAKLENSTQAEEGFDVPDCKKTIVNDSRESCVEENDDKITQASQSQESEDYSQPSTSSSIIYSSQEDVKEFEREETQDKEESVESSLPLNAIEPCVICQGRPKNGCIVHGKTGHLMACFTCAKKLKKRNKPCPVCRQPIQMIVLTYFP

Key:
[1] = molecular target: endogenous PP1α (HeLa) (human (endogenous in HeLa)) (UniProt P62136); assay: pull-down; microcystin-agarose beads precipitate endogenous PP1α from HeLa cells transfected with AR, overnight in androgen-depleted medium with 10 nM DHT; blotting
[2] = molecular target: Flag-tagged PP1α (in 293T) (UniProt P62136); assay: co-IP; 293T cells co-transfected with Flag-PP1α and HA-tagged AR constructs, in medium with 5% FBS or overnight in androgen-depleted medium; triton lysis buffer; anti-Flag-M2 beads, 4°C, 2 hr; blotting
[3] = molecular target: Flag-tagged PP1α (in HeLa) (UniProt P62136); assay: co-IP; HeLa cells transfected with Flag-PP1 and HA-MDM2 or HA-SKP2, without or with AR; overnight in androgen-depleted medium; anti-Flag beads; blotting
[4] = molecular target: Flag-tagged AR wild-type (human) (UniProt P10275); assay: co-IP; 293T and Cos1 cells co-transfected with PP1α and Flag-tagged AR; triton lysis buffer; anti-Flag-M2 beads, 4°C, 2 hr; blotting

binding [1]: binds
Substance: AR wild-type (transfected in HeLa) (from UniProt P10275 1-920)

binding [2]: binds
Substance: HA-HA-AR full-length (aa 1-919) (from UniProt P10275 1-920)

binding [3]: binds
Substance: HA-MDM2 (from UniProt Q00987 1-491)

binding [4]: binds
Substance: protein phosphatase 1 catalytic subunit (PP1α), untagged (from UniProt P62136 1-330) (enzyme)
